# Assay results: PubChem BioAssay (NCATS)
# “And” between values parts separate entries of the source, which are not always exact repeats. Identical values can stand only once. The inconclusive results got no clear call from the source; some entries with a clear call stand among them for comparison. Entries that show only a call come without a potency. For part of these data: Where the call is inconclusive, the potency comes from a doubtful curve fit. The source made the active and inactive calls. Unless noted, the call rests on the fitted dose curve.
# How the values were obtained:
# [1] = Primary qHTS for Vero E6 cytotoxicity: counterscreen for inhibitors of SARS-S pseudo-typed particle cell entry (AID 1479150); details: activity change, negative = cytotoxicity: at 57.1 µM (top of the series) unless noted; further: potency means the concentration at half of the fitted maximal effect
# [2] = Cytotoxicity counterscreen for inhibitors of SARS-CoV-2 cell entry (AID 1645845); details: activity change, negative = cytotoxicity: at 57.1 µM (top of the series) unless noted; further: nearly all actives have a fitted effect of over 50% in size; further: potency means the concentration at half of the fitted maximal effect
# How it was run: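 HEK293-ACE2 cells (Expi293F stably expressing human ACE2) seeded overnight, then compound for 1 h plus 48 h at 37C. Viability as ATP content by luminescence; normalized to wells with cells and media-only wells.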
# [3] = Primary qHTS to identify inhibitors of SARS-CoV-2 cell entry (AID 1645846); details: activity change, negative = inhibition: at 57.1 µM (top of the series); further: potency means the concentration at half of the fitted maximal effect; nearly all actives have a fitted effect of over 45% in size
# How it was run: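 HEK293 cells stably expressing human ACE2, pre-treated 1 h with compound, then infected with MLV particles pseudotyped with Wuhan-Hu-1 spike (C-terminal 19-aa truncation). Luciferase luminescence after 48 h at 37 °C, normalised to spike PP and bald PP.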
# [4] = Confirmatory qHTS for VERO E6 Cytotoxicity Assay: Counterscreen for SARS-CoV-2 CPE Assay (AID 1508605); further: nearly all actives have a fitted effect of over 60% in size; further: potency means the concentration at half of the fitted maximal effect
# [5] = molecular target: Luciferin 4-monooxygenase (Photinus pyralis) (UniProt P08659); assay: Biochemical firefly luciferase enzyme assay for NPC (AID 624030; active means well fitted inhibition curve with a large enough effect; inconclusive means small, poorly fitted or top-dose-only effect; further: potency means the concentration at half of the fitted maximal effect; nearly all actives have a fitted effect of over 70% in size)
# How it was run: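 Purified P. pyralis luciferase at 10 nM in 50 mM Tris Acetate (final), luminescence read within 5 minutes of enzyme addition to compounds. Activity normalised to PTC124 versus DMSO; concentration-response curves classed by r2, magnitude and activity.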
# [6] = Primary qHTS for inhibitors of MERS-S pseudo-typed particle cell entry (AID 1479149); details: outcome: dose series up to 57.1 µM unless noted; further: nearly all actives have a fitted effect of over 60% in size; further: potency means the concentration at half of the fitted maximal effect
# [7] = VSVG counterscreen qHTS to identify inhibitors of SARS-CoV-2 cell entry (AID 1645847); details: VSV-G pseudotyped particle entry, luciferase; activity change, negative = inhibition: at 57.2 µM (top of the series); further: nearly all actives have a fitted effect of over 65% in size
# How it was run: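 HEK293-ACE2 cells (Expi293F, human ACE2) pretreated 1 h with compound, then infected with MLV-based VSV-G pseudotyped particles for 48 h at 37 C; luciferase luminescence normalized to VSV-G PP and bald PP wells.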
compound,measurement,setting,value
O=C(OCc1ccccc1)c1cccnc1,Potency,[1],"inconclusive: 17.8 µM [cytotoxic, single point]"
COCC(=O)Nc1cc(Sc2ccccc2)ccc1N=C(NC(=O)OC)NC(=O)OC,Potency,[1],inactive
same,Potency,[2],"inconclusive: 28.2 µM [cytotoxic, single point]"
same,Potency,[3],"inconclusive: 39.8 µM [inhibitor, single point]"
NC(=O)c1ccc([N+](=O)[O-])cc1Cl,Potency,[1],inactive
same,Potency,[2],inactive
CS(=O)(=O)n1cc2c(n1)CN([C@H]1CO[C@H](c3cc(F)ccc3F)[C@@H](N)C1)C2,Potency,[1],inactive
COc1cc(C(=O)NC2CCCNC2)cc(OC)c1OC (stereo not drawn),Potency,[1],inactive
CN=C(NC)NCc1ccccc1,Potency,[1],inactive
CCCC[C@@H](C=O)NC(=O)[C@H](CC(C)C)NC(=O)[C@H](CC(C)C)NC(C)=O,Potency,[4],inactive
O=S(=O)(NCC1CC1)c1ccc(Nc2nccc(N3CCCc4cc(O)ccc43)n2)cc1,Potency,[4],"inconclusive: 2.82 µM [cytotoxic, partial curve]"
CC(=O)OCC(=O)[C@@]1(O)CC[C@H]2[C@@H]3C[C@H](C)C4=CC(=O)C=C[C@]4(C)[C@H]3[C@@H](O)C[C@@]21C,Potency,[1],"inconclusive: 39.8 µM [cytotoxic, partial curve, poor fit]"
CCCCCOc1ccc(C2SC(=O)NC2=O)cc1OCC (stereo not drawn),Potency,[5],"inconclusive: 25.6 µM [inhibitor, partial curve]"
same,Potency,[6],inactive
Cc1ncc(COP(=O)(O)O)c(C)c1O,Potency,[1],inactive
CC[C@H]1OC(=O)[C@H](C)[C@@H](O[C@H]2C[C@@](C)(OC)[C@@H](O)[C@H](C)O2)[C@H](C)[C@@H](O[C@@H]2O[C@H](C)C[C@H](N(C)C)[C@H]2O)[C@](C)(O)C[C@@H](C)CN(C)[C@H](C)[C@@H](O)[C@]1(C)O,Potency,[6],"inconclusive: 8.91 µM [inhibitor, partial curve]"
same,Potency,[3],"inconclusive: 25.1 µM [inhibitor, partial curve] and active: 12.6 µM"
same,Potency,[7],inactive
